Measured values published in patent US11147884B2, “Inhibitors of NHE-mediated antiport” (Ardelyx, Inc., priority 2017, dated 2021).

Amino acid sequences for entries named in this document (tags omitted). Residues count along the entry.
UniProt P48764, 26-834 limits assumed: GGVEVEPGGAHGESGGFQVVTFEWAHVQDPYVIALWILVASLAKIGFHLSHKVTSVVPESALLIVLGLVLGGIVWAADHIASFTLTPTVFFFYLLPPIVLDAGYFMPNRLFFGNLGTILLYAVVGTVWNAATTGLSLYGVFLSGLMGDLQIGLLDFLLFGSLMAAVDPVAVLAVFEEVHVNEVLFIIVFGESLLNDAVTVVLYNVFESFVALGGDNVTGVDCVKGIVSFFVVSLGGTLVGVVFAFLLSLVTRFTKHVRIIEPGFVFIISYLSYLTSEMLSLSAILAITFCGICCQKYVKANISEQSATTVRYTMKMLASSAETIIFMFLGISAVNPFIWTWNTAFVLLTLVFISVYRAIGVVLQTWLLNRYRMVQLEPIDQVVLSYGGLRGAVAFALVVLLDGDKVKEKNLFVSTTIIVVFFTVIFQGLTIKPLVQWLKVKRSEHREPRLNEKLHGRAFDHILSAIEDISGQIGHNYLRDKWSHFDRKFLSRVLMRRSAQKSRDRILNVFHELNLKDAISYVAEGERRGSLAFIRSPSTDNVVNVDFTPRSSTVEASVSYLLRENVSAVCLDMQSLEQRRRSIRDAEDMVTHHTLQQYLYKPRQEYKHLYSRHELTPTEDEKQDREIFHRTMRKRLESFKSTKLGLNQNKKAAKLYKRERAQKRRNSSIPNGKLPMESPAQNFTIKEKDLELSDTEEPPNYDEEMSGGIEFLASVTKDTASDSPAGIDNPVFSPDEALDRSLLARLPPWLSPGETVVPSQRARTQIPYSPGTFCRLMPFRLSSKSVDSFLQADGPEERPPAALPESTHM
UniProt Q99653, 2-195 partner limits assumed: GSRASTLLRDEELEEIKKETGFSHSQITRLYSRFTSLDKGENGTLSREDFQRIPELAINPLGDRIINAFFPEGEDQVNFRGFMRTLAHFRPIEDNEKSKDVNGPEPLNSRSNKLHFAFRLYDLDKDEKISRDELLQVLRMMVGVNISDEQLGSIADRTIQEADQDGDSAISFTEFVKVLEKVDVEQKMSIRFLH

Legend:
human NHE3 [1] = molecular target: T1, human NHE3 (Homo sapiens, UniProt P48764); assay: Cell-based assay of NHE-3 activity (pre-incubation inhibition), human; conditions: human Preincuba assay; PS120 fibroblasts expressing human NHE3 and NHERF2
human NHE3 [2] = molecular target: T1, human NHE3; assay: Cell-based assay of NHE-3 activity (persistent inhibition after washout), human; conditions: human Persistence assay; after 60 min incubation and washout
Sprague Dawley rats = assay: Inhibition of intestinal sodium absorption in rats (urinary sodium excretion, fecal form); conditions: rat; for FFS (1-5): fecal form score, group median (1 normal pellet to 5 liquid fecal streams), oral, 13 hours; for Urinary Na (% of Vehicle, out/in): oral gavage, 13-hours post-dose

## CN1Cc2c(Cl)cc(Cl)cc2C(c2cccc(S(=O)(=O)N[C@H]3CCN(CCOCCNC(=O)NCCCCNC(=O)NCCOCCN4CC[C@H](NS(=O)(=O)c5cccc(C6CN(C)Cc7c(Cl)cc(Cl)cc76)c5)C4)C3)c2)C1 (stereo partly shown)
Human NHE3 [1]
  % inhibition: C (>70%)
  pIC50: C (NHE3 pIC50 >7)
Human NHE3 [2]
  % inhibition: C (>70%)
  pIC50: C (NHE3 pIC50 >7)
Sprague Dawley rats; 0.01 mg/kg
  FFS (1-5): 3
Sprague Dawley rats; 0.03 mg/kg
  FFS (1-5): 2
Sprague Dawley rats; 0.1 mg/kg
  FFS (1-5): 3
Sprague Dawley rats; dose 0.01 mg/kg
  Urinary Na (% of Vehicle, out/in): A (>70%)
Sprague Dawley rats; dose 0.03 mg/kg
  Urinary Na (% of Vehicle, out/in): A (>70%)
Sprague Dawley rats; dose 0.1 mg/kg
  Urinary Na (% of Vehicle, out/in): C (<40%)

The match of structure and compound is tentative.
